Measurements published in patent publication EP0903346A1, “SYDNONE IMINE DERIVATIVES” (Chugai Seiyaku Kabushiki Kaisha, priority 1995, dated 1997).

System: rat ischemia-reperfusion model
Assay: Myocardial necrosis inhibitory effect in rat ischemia-reperfusion model
Format: in vivo
Details: risk area/left ventricle, mean ± standard error
Method: Male Sprague Dawley rats weighing 270 to 410 g were anesthetized with sodium pentobarbital (50 mg/kg, i.p.) and fixed in the supine position. A canula was inserted into the trachea of each animal. Then the blood pressure of the animal was measured (AP-621G, Nippon Kohden Corp.) through a polyethylene tube (PE50, Becton Dickinson) inserted into the right femoral artery via a pressure transducer (Life Kit DTS, DX-300, Nippon Kohden Corp.) and the heart rate was determined from the pulse wave (AT-610G, Nippon Kohden Corp.). Two canulae (PE10 and PE50, Becton Dickinson) for injecting the maintenance anesthetic drug (sodium pentobarbital 20 mg/kg/h) and a coloring matter respectively were inserted into the right jugular vein. The left jugular vein was exposed for blood collection. The chest was opened by vertically sectioning the chest region from the third to fifth left ribs about 10 mm apart from the median line under artificial respiration with room air (Harvard respirator, model 683, rate : 60 strokes/min. tidal volume : 10 ml/kg body weight). Then the operative field was enlarged with a wound retractor and the heart sac was peeled off to thereby expose the heart. By using a curved round needle with thread for vascular tract (8mm, 6-0 black blaid silk, Matsuda Medical Industry), a thread of 4 to 5 mm in length was put in the left ventricle in the depth of 2 mm for ligating the coronary artery. After the completion of the operation, the animal was allowed to stand as such for 20 minutes or longer. After confirming that the blood pressure and the heart rate had been stabilized, the experiment was initiated.
In this experiment, use was made of eight groups of rats including: 1) a physiological saline (i.e., the solvent for SIN-1) group; 2) an SIN-1 (3 µg/kg/min) group; 3) another SIN-1 (10 µg/kg/min) group; 4) 1% DMSO-containing physiological saline (adjusted to pH 5 with hydrochloric acid, i.e., the solvent for the compounds of Examples 1 and 2) group; 5) a group of the compound of Example 1 (10 µg/kg/min); 6) another group of the compound of Example 1 (30 µg/kg/min); 7) a group of the compound of Example 2 (3 µg/kg/min); and 8) another group of the compound of Example 2 (10 µg/kg/min). Each drug was intravenously administered continuously for 75 minutes (from 15 minutes before the ligation of the coronary artery to the completion of the reflow) at a rate of 0.95 ml/h. […] After 30-minutes reflow, the risk area (RA) and the necrosis area (NA) were measured.
The risk area and the necrosis area formed by ligating the coronary artery were measured by the double staining method with Evans blue and triphenyltetrazolium chloride (TTC) in the following manner. […]

[1] = 10 µg/kg/min intravenously for 75 minutes

SMILES | RA/LV [1] [%] | RA/LV (30 µg/kg/min intravenously for 75 minutes) [%] | RA/LV (3 µg/kg/min intravenously for 75 minutes) [%]
CN1CCN([n+]2cc([N-]C(=O)CSc3cc(C(C)(C)C)c(O)c(C(C)(C)C)c3)on2)CC1 [Example 1, N-((3,5-Di-t-butyl-4-hydroxyphenylthio)acetyl)-3-(4-methylpiperazin-1-yl)sydnonimine] | 34.0±2.6 | 36.5±3.7 | –
Cl.N=c1c[n+](N2CCOCC2)[n-]o1 [SIN-1, 3-morpholinosydnonimine hydrochloride, reference compound] | 48.9±4.9 | – | 49.0±3.0
